Experimental data published in publication PMC5206742.
No constants are given. Whether binding was seen depends on the method and setting. Binding seen in cells or lysates may run through a third protein. Some binding calls cover weakened binding; strength is not graded here.

Chains of the proteins cited; added tags and fusions are not shown.
UniProt Q8K2F0: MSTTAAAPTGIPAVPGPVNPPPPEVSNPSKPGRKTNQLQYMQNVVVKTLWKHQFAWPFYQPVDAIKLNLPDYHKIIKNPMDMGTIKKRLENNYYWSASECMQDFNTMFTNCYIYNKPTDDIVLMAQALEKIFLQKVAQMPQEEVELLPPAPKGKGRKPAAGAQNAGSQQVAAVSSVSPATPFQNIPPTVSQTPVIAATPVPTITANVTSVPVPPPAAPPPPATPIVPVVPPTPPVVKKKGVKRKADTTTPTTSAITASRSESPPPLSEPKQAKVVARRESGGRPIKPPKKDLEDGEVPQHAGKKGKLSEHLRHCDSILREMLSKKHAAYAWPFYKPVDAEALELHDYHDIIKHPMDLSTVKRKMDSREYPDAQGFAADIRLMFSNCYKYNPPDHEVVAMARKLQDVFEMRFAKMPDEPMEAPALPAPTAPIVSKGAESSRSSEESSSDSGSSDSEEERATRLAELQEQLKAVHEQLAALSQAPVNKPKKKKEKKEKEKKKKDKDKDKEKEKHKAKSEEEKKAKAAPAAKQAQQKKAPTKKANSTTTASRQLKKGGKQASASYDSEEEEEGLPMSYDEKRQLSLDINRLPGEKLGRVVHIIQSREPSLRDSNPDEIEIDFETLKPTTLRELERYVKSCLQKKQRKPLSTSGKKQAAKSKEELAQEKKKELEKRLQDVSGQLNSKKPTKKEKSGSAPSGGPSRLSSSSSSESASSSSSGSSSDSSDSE

Target: Bromodomain protein 3 (Brd3), endogenous (mouse (endogenous in RAW264.7)) (UniProt Q8K2F0)
Assay: co-IP

B1: IRF3, endogenous (protein, UniProt P70671 1-419)
chain: METPKPRILPWLVSQLDLGQLEGVAWLDESRTRFRIPWKHGLRQDAQMADFGIFQAWAEASGAYTPGKDKPDVSTWKRNFRSALNRKEVLRLAADNSKDPYDPHKVYEFVTPGARDFVHLGASPDTNGKSSLPHSQENLPKLFDGLILGPLKDEGSSDLAIVSDPSQQLPSPNVNNFLNPAPQENPLKQLLAEEQWEFEVTAFYRGRQVFQQTLFCPGGLRLVGSTADMTLPWQPVTLPDPEGFLTDKLVKEYVGQVLKGLGNGLALWQAGQCLWAQRLGHSHAFWALGEELLPDSGRGPDGEVHKDKDGAVFDLRPFVADLIAFMEGSGHSPRYTLWFCMGEMWPQDQPWVKRLVMVKVVPTCLKELLEMAREGGASSLKTVDLHISNSQPISLTSDQYKAYLQDLVEDMDFQATGNI
For B1, the binding was “binds”.
